Results from PMC10445733.

Chains of the proteins cited; added tags and fusions are not shown.
UniProt C9J7I0: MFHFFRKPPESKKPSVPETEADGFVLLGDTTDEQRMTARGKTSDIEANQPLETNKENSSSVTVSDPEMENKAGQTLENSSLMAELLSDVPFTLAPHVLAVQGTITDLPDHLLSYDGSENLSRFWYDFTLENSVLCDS
UniProt A5D8V6: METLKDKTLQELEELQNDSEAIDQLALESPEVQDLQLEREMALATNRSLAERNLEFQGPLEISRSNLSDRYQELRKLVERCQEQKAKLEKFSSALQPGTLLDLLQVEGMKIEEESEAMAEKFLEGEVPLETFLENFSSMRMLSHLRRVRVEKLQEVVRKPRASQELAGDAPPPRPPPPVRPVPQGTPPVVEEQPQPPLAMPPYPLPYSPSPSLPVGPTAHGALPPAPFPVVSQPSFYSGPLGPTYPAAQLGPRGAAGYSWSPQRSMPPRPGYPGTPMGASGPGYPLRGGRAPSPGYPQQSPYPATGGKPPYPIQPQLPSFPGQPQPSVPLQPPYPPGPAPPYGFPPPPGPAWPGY
UniProt Q9UK41: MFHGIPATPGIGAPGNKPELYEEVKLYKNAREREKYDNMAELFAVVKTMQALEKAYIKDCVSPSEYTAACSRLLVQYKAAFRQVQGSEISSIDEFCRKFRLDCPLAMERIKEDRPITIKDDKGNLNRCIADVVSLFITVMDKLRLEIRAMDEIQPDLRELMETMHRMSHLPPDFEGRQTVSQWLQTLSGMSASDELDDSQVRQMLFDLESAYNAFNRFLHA
UniProt Q8NEZ2: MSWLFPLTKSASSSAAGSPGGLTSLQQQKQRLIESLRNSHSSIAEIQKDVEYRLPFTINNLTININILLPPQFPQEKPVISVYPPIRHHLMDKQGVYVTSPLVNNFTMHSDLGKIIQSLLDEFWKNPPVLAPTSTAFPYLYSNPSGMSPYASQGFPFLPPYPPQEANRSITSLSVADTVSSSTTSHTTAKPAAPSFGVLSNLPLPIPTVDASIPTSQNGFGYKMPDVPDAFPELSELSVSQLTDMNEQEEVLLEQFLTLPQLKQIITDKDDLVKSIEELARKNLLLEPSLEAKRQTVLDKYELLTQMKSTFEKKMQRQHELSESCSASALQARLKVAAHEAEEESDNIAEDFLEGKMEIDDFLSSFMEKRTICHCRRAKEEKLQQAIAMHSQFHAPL

Legend:
[1] = biological target: YFP–UMAD1 (human) (UniProt C9J7I0); assay: affinity purification with mass spectrometry; GFP-trap of YFP–UMAD1 stably re-expressed in HeLa^ΔUMAD1 and 293T^ΔUMAD1 cells, IP-TMT quantitative MS against unfused YFP
[2] = biological target: YFP–VPS37C (UniProt A5D8V6); assay: affinity purification with mass spectrometry; GFP-trap of YFP–TSG101 or YFP–VPS37C from lysates of stably expressing HeLa cells (YFP–TSG101 also in HeLa^ΔUMAD1), IP-TMT quantitative MS; TMT reporter ion ratio ≥2 over unfused YFP defined specific associations
[3] = biological target: YFP–TSG101 (UniProt Q99816); assay: as above
[4] = biological target: YFP–TSG101 (UniProt Q99816); assay: as above; remark: listed apart in the source
[5] = biological target: YFP–VPS37C (UniProt A5D8V6); assay: as above; remark: listed apart in the source

| binding [1] | binding [2] | binding [3] | binding [4] | binding [5] | Molecule |
| --- | --- | --- | --- | --- | --- |
| no binding | binds |  |  |  | endogenous MVB12A (from UniProt Q96EY5 1-273) |
| binds |  |  |  |  | endogenous TSG101 (from UniProt Q99816 1-390) |
|  | binds | binds |  |  | endogenous UMAD1 (from UniProt C9J7I0 1-137) |
| binds | binds |  |  |  | endogenous VPS28 (from UniProt Q9UK41 1-221) |
| no binding | no binding | binds |  |  | endogenous VPS37A (from UniProt Q8NEZ2 1-397) |
| binds |  | binds |  |  | endogenous VPS37C (from UniProt A5D8V6 1-355) |
| binds |  |  | binds | binds | endogenous CEP55 (protein, UniProt Q53EZ4 1-464) MSSRSTKDLIKSKWGSKPSNSKSETTLEKLKGEIAHLKTSVDEITSGKGKLTDKERHRLLEKIRVLEAEKEKNAYQLTEKDKEIQRLRDQLKARYSTTTLLEQLEETTREGERREQVLKALSEEKDVLKQQLSAATSRIAELESKTNTLRLSQTVAPNCFNSSINNIHEMEIQLKDALEKNQQWLVYDQQREVYVKGLLAKIFELEKKTETAAHSLPQQTKKPESEGYLQEEKQKCYNDLLASAKKDLEVERQTITQLSFELSEFRRKYEETQKEVHNLNQLLYSQRRADVQHLEDDRHKTEKIQKLREENDIARGKLEEEKKRSEELLSQVQFLYTSLLKQQEEQTRVALLEQQMQACTLDFENEKLDRQHVQHQLHVILKELRKARNQITQLESLKQLHEFAITEPLVTFQGETENREKVAASPKSPTAALNESLVECPKCNIQYPATEHRDLLVHVEYCSK |
| no binding |  |  | binds |  | endogenous UBAP1 (protein, UniProt Q9NZ09 1-502) MASKKLGADFHGTFSYLDDVPFKTGDKFKTPAKVGLPIGFSLPDCLQVVREVQYDFSLEKKTIEWAEEIKKIEEAEREAECKIAEAEAKVNSKSGPEGDSKMSFSKTHSTATMPPPINPILASLQHNSILTPTRVSSSATKQKVLSPPHIKADFNLADFECEEDPFDNLELKTIDEKEELRNILVGTTGPIMAQLLDNNLPRGGSGSVLQDEEVLASLERATLDFKPLHKPNGFITLPQLGNCEKMSLSSKVSLPPIPAVSNIKSLSFPKLDSDDSNQKTAKLASTFHSTSCLRNGTFQNSLKPSTQSSASELNGHHTLGLSALNLDSGTEMPALTSSQMPSLSVLSVCTEESSPPNTGPTVTPPNFSVSQVPNMPSCPQAYSELQMLSPSERQCVETVVNMGYSYECVLRAMKKKGENIEQILDYLFAHGQLCEKGFDPLLVEEALEMHQCSEEKMMEFLQLMSKFKEMGFELKDIKEVLLLHNNDQDNALEDLMARAGAS |

Read-outs that look alike come from different tables or passages of the source. These are yes or no findings as the source states them, for the method shown. Binding seen in cells or lysates may run through a third protein. A yes stands for co-enrichment or nearness to the bait. Other partners may have been found. For some assays here: A no says only that the protein was not detected with the bait.
